The text below walks through data of paper PMC5841321.

The chains are these.
B1: Nucleolar complex protein 4 homolog (protein, UniProt Q9BVI4 1-516)
chain: MEREPGAAGVRRALGRRLEAVLASRSEANAVFDILAVLQSEDQEEIQEAVRTCSRLFGALLERGELFVGQLPSEEMVMTGSQGATRKYKVWMRHRYHSCCNRLGELLGHPSFQVKELALSALLKFVQLEGAHPLEKSKWEGNYLFPRELFKLVVGGLLSPEEDQSLLLSQFREYLDYDDTRYHTMQAAVDAVARVTGQHPEVPPAFWNNAFTLLSAVSLPRREPTVSSFYVKRAELWDTWKVAHLKEHRRVFQAMWLSFLKHKLPLSLYKKVLLIVHDAILPQLAQPTLMIDFLTRACDLGGALSLLALNGLFILIHKHNLEYPDFYRKLYGLLDPSVFHVKYRARFFHLADLFLSSSHLPAYLVAAFAKRLARLALTAPPEALLMVLPFICNLLRRHPACRVLVHRPHGPELDADPYDPGEEDPAQSRALESSLWELQALQRHYHPEVSKAASVINQALSMPEVSIAPLLELTAYEIFERDLKKKGPEPVPLEFIPAQGLLGRPGELCAQHFTLS
B2: Myb-binding protein 1A (protein, UniProt Q9BQG0 1-1328)
chain: MESRDPAQPMSPGEATQSGARPADRYGLLKHSREFLDFFWDIAKPEQETRLAATEKLLEYLRGRPKGSEMKYALKRLITGLGVGRETARPCYSLALAQLLQSFEDLPLCSILQQIQEKYDLHQVKKAMLRPALFANLFGVLALFQSGRLVKDQEALMKSVKLLQALAQYQNHLQEQPRKALVDILSEVSKATLQEILPEVLKADLNIILSSPEQLELFLLAQQKVPSKLKKLVGSVNLFSDENVPRLVNVLKMAASSVKKDRKLPAIALDLLRLALKEDKFPRFWKEVVEQGLLKMQFWPASYLCFRLLGAALPLLTKEQLHLVMQGDVIRHYGEHVCTAKLPKQFKFAPEMDDYVGTFLEGCQDDPERQLAVLVAFSSVTNQGLPVTPTFWRVVRFLSPPALQGYVAWLRAMFLQPDLDSLVDFSTNNQKKAQDSSLHMPERAVFRLRKWIIFRLVSIVDSLHLEMEEALTEQVARFCLFHSFFVTKKPTSQIPETKHPFSFPLENQAREAVSSAFFSLLQTLSTQFKQAPGQTQGGQPWTYHLVQFADLLLNHSHNVTTVTPFTAQQRQAWDRMLQTLKELEAHSAEARAAAFQHLLLLVGIHLLKSPAESCDLLGDIQTCIRKSLGEKPRRSRTKTIDPQEPPWVEVLVEILLALLAQPSHLMRQVARSVFGHICSHLTPRALQLILDVLNPETSEDENDRVVVTDDSDERRLKGAEDKSEEGEDNRSSESEEESEGEESEEEERDGDVDQGFREQLMTVLQAGKALGGEDSENEEELGDEAMMALDQSLASLFAEQKLRIQARRDEKNKLQKEKALRRDFQIRVLDLVEVLVTKQPENALVLELLEPLLSIIRRSLRSSSSKQEQDLLHKTARIFTHHLCRARRYCHDLGERAGALHAQVERLVQQAGRQPDSPTALYHFNASLYLLRVLKGNTAEGCVHETQEKQKAGTDPSHMPTGPQAASCLDLNLVTRVYSTALSSFLTKRNSPLTVPMFLSLFSRHPVLCQSLLPILVQHITGPVRPRHQACLLLQKTLSMREVRSCFEDPEWKQLMGQVLAKVTENLRVLGEAQTKAQHQQALSSLELLNVLFRTCKHEKLTLDLTVLLGVLQGQQQSLQQGAHSTGSSRLHDLYWQAMKTLGVQRPKLEKKDAKEIPSATQSPISKKRKKKGFLPETKKRKKRKSEDGTPAEDGTPAATGGSQPPSMGRKKRNRTKAKVPAQANGTPTTKSPAPGAPTRSPSTPAKSPKLQKKNQKPSQVNGAPGSPTEPAGQKQHQKALPKKGVLGKSPLSALARKKARLSLVIRSPSLLQSGAKKKAQVRKAGKP
B3: Putative helicase MOV-10 (protein, UniProt Q9HCE1 1-1003)
chain: MPSKFSCRQLREAGQCFESFLVVRGLDMETDRERLRTIYNRDFKISFGTPAPGFSSMLYGMKIANLAYVTKTRVRFFRLDRWADVRFPEKRRMKLGSDISKHHKSLLAKIFYDRAEYLHGKHGVDVEVQGPHEARDGQLLIRLDLNRKEVLTLRLRNGGTQSVTLTHLFPLCRTPQFAFYNEDQELPCPLGPGECYELHVHCKTSFVGYFPATVLWELLGPGESGSEGAGTFYIARFLAAVAHSPLAAQLKPMTPFKRTRITGNPVVTNRIEEGERPDRAKGYDLELSMALGTYYPPPRLRQLLPMLLQGTSIFTAPKEIAEIKAQLETALKWRNYEVKLRLLLHLEELQMEHDIRHYDLESVPMTWDPVDQNPRLLTLEVPGVTESRPSVLRGDHLFALLSSETHQEDPITYKGFVHKVELDRVKLSFSMSLLSRFVDGLTFKVNFTFNRQPLRVQHRALELTGRWLLWPMLFPVAPRDVPLLPSDVKLKLYDRSLESNPEQLQAMRHIVTGTTRPAPYIIFGPPGTGKTVTLVEAIKQVVKHLPKAHILACAPSNSGADLLCQRLRVHLPSSIYRLLAPSRDIRMVPEDIKPCCNWDAKKGEYVFPAKKKLQEYRVLITTLITAGRLVSAQFPIDHFTHIFIDEAGHCMEPESLVAIAGLMEVKETGDPGGQLVLAGDPRQLGPVLRSPLTQKHGLGYSLLERLLTYNSLYKKGPDGYDPQFITKLLRNYRSHPTILDIPNQLYYEGELQACADVVDRERFCRWAGLPRQGFPIIFHGVMGKDEREGNSPSFFNPEEAATVTSYLKLLLAPSSKKGKARLSPRSVGVISPYRKQVEKIRYCITKLDRELRGLDDIKDLKVGSVEEFQGQERSVILISTVRSSQSFVQLDLDFNLGFLKNPKRFNVAVTRAKALLIIVGNPLLLGHDPDWKVFLEFCKENGGYTGCPFPAKLDLQQGQNLLQGLSKLSPSTSGPHSHDYLPQEREGEGGLSLQVEPEWRNEL
B4: Probable 28S rRNA (cytosine(4447)-C(5))-methyltransferase (protein, UniProt P46087 1-812)
chain: MGRKLDPTKEKRGPGRKARKQKGAETELVRFLPAVSDENSKRLSSRARKRAAKRRLGSVEAPKTNKSPEAKPLPGKLPKGISAGAVQTAGKKGPQSLFNAPRGKKRPAPGSDEEEEEEDSEEDGMVNHGDLWGSEDDADTVDDYGADSNSEDEEEGEALLPIERAARKQKAREAAAGIQWSEEETEDEEEEKEVTPESGPPKVEEADGGLQINVDEEPFVLPPAGEMEQDAQAPDLQRVHKRIQDIVGILRDFGAQREEGRSRSEYLNRLKKDLAIYYSYGDFLLGKLMDLFPLSELVEFLEANEVPRPVTLRTNTLKTRRRDLAQALINRGVNLDPLGKWSKTGLVVYDSSVPIGATPEYLAGHYMLQGASSMLPVMALAPQEHERILDMCCAPGGKTSYMAQLMKNTGVILANDANAERLKSVVGNLHRLGVTNTIISHYDGRQFPKVVGGFDRVLLDAPCSGTGVISKDPAVKTNKDEKDILRCAHLQKELLLSAIDSVNATSKTGGYLVYCTCSITVEENEWVVDYALKKRNVRLVPTGLDFGQEGFTRFRERRFHPSLRSTRRFYPHTHNMDGFFIAKFKKFSNSIPQSQTGNSETATPTNVDLPQVIPKSENSSQPAKKAKGAAKTKQQLQKQQHPKKASFQKLNGISKGADSELSTVPSVTKTQASSSFQDSSQPAGKAEGIREPKVTGKLKQRSPKLQSSKKVAFLRQNAPPKGTDTQTPAVLSPSKTQATLKPKDHHQPLGRAKGVEKQQLPEQPFEKAAFQKQNDTPKGPQPPTVSPIRSSRPPPAKRKKSQSRGNSQLLLS
B5: Matrin-3 (protein, UniProt P43243 1-847)
chain: MSKSFQQSSLSRDSQGHGRDLSAAGIGLLAAATQSLSMPASLGRMNQGTARLASLMNLGMSSSLNQQGAHSALSSASTSSHNLQSIFNIGSRGPLPLSSQHRGDADQASNILASFGLSARDLDELSRYPEDKITPENLPQILLQLKRRRTEEGPTLSYGRDGRSATREPPYRVPRDDWEEKRHFRRDSFDDRGPSLNPVLDYDHGSRSQESGYYDRMDYEDDRLRDGERCRDDSFFGETSHNYHKFDSEYERMGRGPGPLQERSLFEKKRGAPPSSNIEDFHGLLPKGYPHLCSICDLPVHSNKEWSQHINGASHSRRCQLLLEIYPEWNPDNDTGHTMGDPFMLQQSTNPAPGILGPPPPSFHLGGPAVGPRGNLGAGNGNLQGPRHMQKGRVETSRVVHIMDFQRGKNLRYQLLQLVEPFGVISNHLILNKINEAFIEMATTEDAQAAVDYYTTTPALVFGKPVRVHLSQKYKRIKKPEGKPDQKFDQKQELGRVIHLSNLPHSGYSDSAVLKLAEPYGKIKNYILMRMKSQAFIEMETREDAMAMVDHCLKKALWFQGRCVKVDLSEKYKKLVLRIPNRGIDLLKKDKSRKRSYSPDGKESPSDKKSKTDGSQKTESSTEGKEQEEKSGEDGEKDTKDDQTEQEPNMLLESEDELLVDEEEAAALLESGSSVGDETDLANLGDVASDGKKEPSDKAVKKDGSASAAAKKKLKKVDKIEELDQENEAALENGIKNEENTEPGAESSENADDPNKDTSENADGQSDENKDDYTIPDEYRIGPYQPNVPVGIDYVIPKTGFYCKLCSLFYTNEEVAKNTHCSSLPHYQKLKKFLNKLAEERRQKKET
B6: Protein LYRIC (protein, UniProt Q86UE4 1-582)
chain: MAARSWQDELAQQAEEGSARLREMLSVGLGFLRTELGLDLGLEPKRYPGWVILVGTGALGLLLLFLLGYGWAAACAGARKKRRSPPRKREEAAAVPAAAPDDLALLKNLRSEEQKKKNRKKLSEKPKPNGRTVEVAEGEAVRTPQSVTAKQPPEIDKKNEKSKKNKKKSKSDAKAVQNSSRHDGKEVDEGAWETKISHREKRQQRKRDKVLTDSGSLDSTIPGIENTITVTTEQLTTASFPVGSKKNKGDSHLNVQVSNFKSGKGDSTLQVSSGLNENLTVNGGGWNEKSVKLSSQISAGEEKWNSVSPASAGKRKTEPSAWSQDTGDANTNGKDWGRSWSDRSIFSGIGSTAEPVSQSTTSDYQWDVSRNQPYIDDEWSGLNGLSSADPNSDWNAPAEEWGNWVDEERASLLKSQEPIPDDQKVSDDDKEKGEGALPTGKSKKKKKKKKKQGEDNSTAQDTEELEKEIREDLPVNTSKTRPKQEKAFSLKTISTSDPAEVLVKNSQPIKTLPPATSTEPSVILSKSDSDKSSSQVPPILQETDKSKSNTKQNSVPPSQTKSETSWESPKQIKKKKKARRET

These are yes or no findings as the source states them, for the method shown. In cells and extracts the contact can be indirect. Here binding means that the protein was enriched with, or labelled near, the bait; the list need not be complete.

The assay addresses T1, E3 ubiquitin-protein ligase Midline-1 (UniProt O15344).
T1 sequence: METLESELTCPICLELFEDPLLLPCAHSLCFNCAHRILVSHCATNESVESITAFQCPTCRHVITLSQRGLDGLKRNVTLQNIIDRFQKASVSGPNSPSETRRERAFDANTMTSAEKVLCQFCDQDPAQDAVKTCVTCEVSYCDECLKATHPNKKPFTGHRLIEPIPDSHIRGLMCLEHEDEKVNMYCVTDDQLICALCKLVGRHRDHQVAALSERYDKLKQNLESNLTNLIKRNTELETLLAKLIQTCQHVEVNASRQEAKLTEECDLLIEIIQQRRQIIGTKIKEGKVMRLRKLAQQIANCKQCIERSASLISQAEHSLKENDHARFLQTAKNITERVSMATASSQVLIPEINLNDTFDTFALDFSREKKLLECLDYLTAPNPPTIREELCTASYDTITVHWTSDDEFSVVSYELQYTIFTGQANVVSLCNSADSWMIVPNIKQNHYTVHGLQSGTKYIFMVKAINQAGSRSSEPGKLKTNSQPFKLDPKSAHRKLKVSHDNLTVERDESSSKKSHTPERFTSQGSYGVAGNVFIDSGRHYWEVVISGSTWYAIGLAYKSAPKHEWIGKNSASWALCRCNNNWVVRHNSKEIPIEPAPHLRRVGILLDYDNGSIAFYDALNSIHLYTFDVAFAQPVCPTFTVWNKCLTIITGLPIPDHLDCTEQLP
In words: affinity purification with mass spectrometry; MID1-FLAG expressed in HEK293T, lysate in TKM buffer (20 mM Tris pH 7.4, 100 mM KCl, 5 mM MgCl2, 0.5% NP40, 1 mM DTT), anti-FLAG M1 agarose overnight at 4 °C, 6 washes; untransfected cells as control; Q-Exactive, MaxQuant, 1% FDR.
B1: the binding result is “binds”. As for B2, the entry is “binds”; as for B3, “binds”.

Regarding B4, the binding result is on record as “binds”. As for B5, the entry is “binds”; as for B6, “binds”.
